Values quoted from earlier work as cited in patent US20150050358A1, “IMPLANT SUPPORT COMPOSITION AND METHODS OF USE” (REGENTS OF THE UNIVERSITY OF MINNESOTA, priority 2013, published 2015).
For at least one compound, name, drawing or mass did not settle the structure.

details: antibiotic solution

SMILES	pH of solution [pH]
CN(C)[C@@H]1C(O)=C(C(N)=O)C(=O)[C@@]2(O)C(O)=C3C(=O)c4c(O)cccc4[C@@](C)(O)[C@H]3C[C@@H]12 [tetracycline]	1.6
CN(C)c1ccc(O)c2c1C[C@H]1C[C@H]3[C@H](N(C)C)C(O)=C(C(N)=O)C(=O)[C@@]3(O)C(O)=C1C2=O [minocycline]	3.8
C[C@H]1c2cccc(O)c2C(=O)C2=C(O)[C@]3(O)C(=O)C(C(N)=O)=C(O)[C@@H](N(C)C)[C@@H]3[C@@H](O)[C@@H]21 [doxycycline]	2.2
